US6680003B2, “Chiral doping agents with variable spiral pitch induction and application thereof to a reflective color display” (Asulab S.A., priority 2000, dated 2004)

Legend:
HTP in a nematic = format: physicochemical
[1] = Photomodulation of the colour of display cells (UV exposure, UV-VIS spectrum)
Excerpt: The compound thus prepared is introduced into a test cell including a front substrate and a back substrate, these substrates being formed by glass plates, of 2.2×2.8 mm and 0.3 mm thick held by a sealing frame at a spacing of 6 μm. The cell includes an non brushed planar alignment layer, and a 1 cm square shape pixel including on each of the substrates an indium tin oxide (ITO) coating forming the electrodes which will allow the cell to switch from one state to another by applying an electric field. Once filled, the cell is exposed to UV radiation and the evolution of the UV-VIS spectrum is followed as a function of exposure time. In the experiment corresponding to the graph of FIG. 3, giving the transmission percentage as a function of wavelength, only chiral doping agent 209s has been added to the basic cholesteric material and the initial state (curve a) and the spectrum respectively after 1 minute (curve b), 3 minutes (curve c) and 10 minutes exposure (curve d) are shown. A longer exposure time no longer modifies the spectrum, curve d representing the cell spectrum photomodulated to the maximum. A displacement will then be observed reaching 160 nm from the initial spectrum, i.e. a displacement from violet blue (curve b) to orange-red (curve d), passing through green (curve c). In the experiment corresponding to the graph of FIG. 4, 3% in weight of a photoinitiator of the morpholinocetone type, commercially available from Ciba-Geigy under the reference Irgacure®369, has been added to the basic cholesteric material. This photoinitiator aims to improve polymerisation of the end chains. For the purpose of improving polymerisation and thus the fixing of a determined colour, the photoinitiator may also be replaced by a […] comonomer, such as the compound RM-82 available from Merck. It is also possible to use simultaneously, in appropriate ratios, both a photoinitiator and a comonomer. With reference now to FIG. 4, which concerns a cell whose basic cholesteric material only contains one doping agent according to the invention and a photoinitiator. […]

**Q.** With “2-[4′-(6-Acryloyloxyhexyloxy)-2′,5′-methylazophenyl-4-carbonyloy]-5-[4-(6-acryloyloxyhexyloxy) Benzoyl]-1,4;3,6-D-mannitol [Compound 210fs]” as the molecule, how does the HTP (HTP in a nematic) read?
**A.** The HTP was 17 μm^−1.

**Q.** Which results are given for “2-[4′-(6-Acryloyloxyhexyloxy)-2′.5′-methylazophenyl-4-carbonyloy]—5-[4-(6-Acryloyloxyhexyloxy)benzoyl]-1.4:3.6-D-glucitol [Compound 209sf]”?
**A.** HTP (HTP in a nematic): 35 μm^−1; variation of spectrum (window) ([1]; 4.1% in weight in basic cholesteric material with photoinitiator, after 5 minutes): 220 nm

**Q.** With CCCCCCOc1ccc(/N=N/c2ccc(OC(=O)[C@H](OC(=O)c3ccc(C)cc3)[C@@H](OC(=O)c3ccc(C)cc3)C(=O)Oc3ccc(/N=N/c4ccc(OCCCCCC)cc4)cc3)cc2)cc1 [Compound 201c] as the molecule, how does the HTP (HTP in a nematic) read?
**A.** Its HTP is 20 μm^−1.

**Q.** For C=CC(=O)OCCCCOc1ccc(/N=N/c2ccc(OC(=O)[C@H](OC(=O)c3ccc(C)cc3)[C@@H](OC(=O)c3ccc(C)cc3)C(=O)Oc3ccc(/N=N/c4ccc(OCCCCOC(=O)C=C)cc4)cc3)cc2)cc1 [Compound 201e, 2,3-Bis[di-4, 4′ (4-acryloyloxybutyloxy)azophenyl-carbonyloy]-di-O, O′-p-toluyl-L-tartrate], which HTP (HTP in a nematic) is on record?
**A.** Its HTP is 19 μm^−1.

**Q.** With CCCCCCOc1ccc(/N=N/c2ccc(OC(=O)[C@@H]3OC(C)(C)O[C@H]3C(=O)Oc3ccc(/N=N/c4ccc(OCCCCCC)cc4)cc3)cc2)cc1 [Compound 206c] as the molecule, how does the HTP (HTP in a nematic) read?
**A.** The HTP was 13 μm^−1.

**Q.** For C=CC(=O)OCCCCOc1ccc(/N=N/c2ccc(OC(=O)[C@@H]3OC(C)(C)O[C@H]3C(=O)Oc3ccc(/N=N/c4ccc(OCCCCOC(=O)C=C)cc4)cc3)cc2)cc1 [Compound 206e], which HTP (HTP in a nematic) is on record?
**A.** The HTP was 11 μm^−1.

**Q.** Which HTP (HTP in a nematic) does the source give for C=CC(=O)OCCCCCCOc1cc(C)c(N=Nc2ccc(C(=O)OC3COC4C(OC(=O)c5ccc(N=Nc6cc(C)c(OCCCCCCOC(=O)C=C)cc6C)cc5)COC34)cc2)cc1C (stereo not shown) [Compound 209s, 2.5 Bis[4′-(6-acryloyloxyhexyloxy)-2.5′-methylazophenyl-4-carbonyloyl]-1.4;3.6-dianhydro-D.glucitol] here?
**A.** Its HTP is 35 μm^−1.

**Q.** And the “displacement from the initial spectrum” value ([1]; 3.3% in basic cholesteric material (E48), no photoinitiator, 10 minutes UV exposure (photomodulated to the maximum), FIG. 3)?
**A.** The value was 160 nm.

**Q.** What about the “variation between the initial spectrum and the spectrum of the cell photomodulated to the maximum” value ([1]; basic cholesteric material with 3% in weight photoinitiator Irgacure 369, 18 minutes exposure, FIG. 4) of the same molecule?
**A.** Its value is 190 nm.
